Test results reported in patent US20250057893A1, “PHARMACEUTICAL COMPOSITION FOR PREVENTING OR TREATING CANCER OR INFLAMMATORY DISEASE” (ENTEROBIOME INC., priority 2021, published 2025).

System: Akkermansia muciniphila ATCC BAA-835
Assay: Utilization of carbohydrates (API50CH kit), type strain
Format: cell-based
Set-up: key: +: growth; w: weak growth; −: no growth
Details: type strain ATCC BAA-835

Q: Amidon [Amidon (starch)] was tested. Which “Growth using the carbohydrate, ATCC BAA-835” value (from here on “Growth using the carbohydrate”) did it give?
A: −

Q: For `O=c1ccc2cc(O[C@@H]3O[C@H](CO)[C@@H](O)[C@H](O)[C@H]3O)c(O)cc2o1` [Esculine], which “Growth using the carbohydrate” value is on record?
A: −

Q: For `N#C[C@H](O[C@@H]1O[C@H](CO[C@@H]2O[C@H](CO)[C@@H](O)[C@H](O)[C@H]2O)[C@@H](O)[C@H](O)[C@H]1O)c1ccccc1` [Amygdaline], which “Growth using the carbohydrate” value is on record?
A: −

Q: Which “Growth using the carbohydrate” value does the source give for `CCN1C[C@]2(COC(=O)c3ccccc3N)CC[C@H](OC)[C@]34C5C[C@@H]6[C@@H](OC)C[C@@](O)(C5[C@H]6OC)[C@@](O)(C13)[C@@H](OC)C24` (some centres unmarked) [Inuline] here?
A: −

Q: With `O=C([O-])[C@H](O)[C@@H](O)[C@H](O)[C@H](O)CO.[K+]` [Potassium Gluconate] as the compound, how does the “Growth using the carbohydrate” value read?
A: −

Some results come without the dose or concentration used.
